Molecular target: human calcium-sensing receptor (CaSR) (Homo sapiens, UniProt P41180)
Experiment: cell-based

Protein sequences, listed by entry. Tags and fused reporters are not part of them. Residues count along the entry.
UniProt P41180, 20-1078: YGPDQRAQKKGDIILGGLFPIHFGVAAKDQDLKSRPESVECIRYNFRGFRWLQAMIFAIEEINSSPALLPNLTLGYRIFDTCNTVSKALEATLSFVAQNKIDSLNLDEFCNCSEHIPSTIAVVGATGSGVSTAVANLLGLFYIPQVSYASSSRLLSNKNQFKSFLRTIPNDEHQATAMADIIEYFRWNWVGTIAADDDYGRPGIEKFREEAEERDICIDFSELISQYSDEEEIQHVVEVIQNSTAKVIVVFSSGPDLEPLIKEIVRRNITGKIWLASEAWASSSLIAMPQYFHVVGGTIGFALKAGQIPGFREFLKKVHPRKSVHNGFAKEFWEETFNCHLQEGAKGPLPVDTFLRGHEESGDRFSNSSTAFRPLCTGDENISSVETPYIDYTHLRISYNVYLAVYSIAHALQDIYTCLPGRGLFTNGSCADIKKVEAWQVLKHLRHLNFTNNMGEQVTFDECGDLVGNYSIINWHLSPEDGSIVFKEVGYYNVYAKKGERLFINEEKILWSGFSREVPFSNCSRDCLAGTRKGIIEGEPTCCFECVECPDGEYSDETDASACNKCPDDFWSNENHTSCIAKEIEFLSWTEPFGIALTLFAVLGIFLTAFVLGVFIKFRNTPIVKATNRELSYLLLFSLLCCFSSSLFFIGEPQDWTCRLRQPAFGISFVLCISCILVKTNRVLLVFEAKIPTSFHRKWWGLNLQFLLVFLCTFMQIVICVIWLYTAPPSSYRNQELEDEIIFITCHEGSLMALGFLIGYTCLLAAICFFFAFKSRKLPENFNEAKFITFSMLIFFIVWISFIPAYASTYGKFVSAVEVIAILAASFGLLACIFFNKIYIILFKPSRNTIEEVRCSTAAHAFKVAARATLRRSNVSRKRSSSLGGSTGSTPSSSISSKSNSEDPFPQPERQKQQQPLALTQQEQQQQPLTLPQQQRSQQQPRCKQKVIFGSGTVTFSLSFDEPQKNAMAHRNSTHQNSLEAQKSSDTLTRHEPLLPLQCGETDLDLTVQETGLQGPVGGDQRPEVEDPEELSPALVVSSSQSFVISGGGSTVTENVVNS

CC[C@@H](NC(=O)[C@@H](CCCNC(=N)N)NC(=O)[C@@H](CCCNC(=N)N)NC(=O)[C@@H](CSSC[C@H](N)C(=O)O)NC(C)=O)C(=O)N[C@H](CCCNC(=N)N)C(=O)N[C@H](C)C(=O)N[C@H](CCCNC(=N)N)C(N)=O [Compound of formula (I), Ac-c(C)-r-r-(D-Abu)-r-a-r-NH2]
EC50: < 10 µM

From patent US20240269227A1, “CALCIUM-SENSING RECEPTOR AGONIST COMPOSITION AND APPLICATION THEREOF” (Beijing Tuo Jie Biopharmaceutical Co. Ltd., priority 2021, published 2024)
